From article PMC12505969
Results are given in words; binding and its absence hold for the method and conditions named. In cells and extracts the contact can be indirect. Binding calls can cover weak binding; strength is not graded here.

By UniProt entry, the sequences of proteins in these tests, tags left out. Where a name states a change or a piece, a line headed by the entry shows the natural chain unless it says otherwise.
UniProt B6KEU8: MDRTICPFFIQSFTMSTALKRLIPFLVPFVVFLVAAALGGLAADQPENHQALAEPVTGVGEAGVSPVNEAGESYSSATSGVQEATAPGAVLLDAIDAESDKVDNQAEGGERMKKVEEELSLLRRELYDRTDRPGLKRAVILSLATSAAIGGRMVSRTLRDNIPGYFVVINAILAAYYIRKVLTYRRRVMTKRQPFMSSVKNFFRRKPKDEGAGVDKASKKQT

Molecular target: T1, GRA7 (T. gondii (endogenous in ME49 tachyzoites)) (UniProt O00933)
T1 sequence: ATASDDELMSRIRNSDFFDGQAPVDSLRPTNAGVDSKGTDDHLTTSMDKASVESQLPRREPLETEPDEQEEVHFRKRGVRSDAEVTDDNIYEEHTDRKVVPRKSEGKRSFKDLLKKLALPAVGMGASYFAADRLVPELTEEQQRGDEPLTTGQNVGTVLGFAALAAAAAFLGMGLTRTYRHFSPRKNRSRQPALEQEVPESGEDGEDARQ
Assay: cross-linking; XL-MS: tachyzoite soluble cytosolic lysate (hypotonic lysis), 1 µg/µL in 1x PBS, 5 mM Azide-A-DSBSO, 2 h at room temperature; digested, DBCO-bead enrichment, LC-MS/MS; cleavable (MS Annika) and non-cleavable (pLink 3) searches; low-score hits salvaged by machine learning; re-searched against a combined human and parasite database for host-parasite pairs

For GRA3 (from UniProt B6KEU8), the binding was “binds”.
